Test results reported in article PMC3826745.

Assays:
[1] = molecular target: T1, N-terminally tagged Neurospora crassa eIF3h (Neurospora crassa) (UniProt Q7S9Y9); assay: co-IP; anti-FLAG affinity purification from N. crassa extracts, FLAG peptide elution, Coomassie gel; N-terminally tagged eIF3h in ΔeIF3h, N-terminally tagged eIF3k in ΔeIF3k, or heterokaryon with N-terminally tagged eIF3k and eIF3l (all 12 subunits present)
T1 sequence: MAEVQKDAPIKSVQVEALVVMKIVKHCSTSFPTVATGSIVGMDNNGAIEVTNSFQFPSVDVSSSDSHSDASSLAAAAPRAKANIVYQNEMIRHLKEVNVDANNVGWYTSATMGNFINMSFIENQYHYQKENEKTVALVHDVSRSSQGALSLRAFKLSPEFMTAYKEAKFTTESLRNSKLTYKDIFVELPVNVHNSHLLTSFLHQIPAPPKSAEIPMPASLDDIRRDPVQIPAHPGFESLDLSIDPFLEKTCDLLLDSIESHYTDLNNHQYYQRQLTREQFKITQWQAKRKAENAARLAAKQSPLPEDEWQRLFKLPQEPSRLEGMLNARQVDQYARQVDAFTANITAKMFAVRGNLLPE

[2] = molecular target: T2, N-terminally tagged Neurospora crassa eIF3l (Neurospora crassa) (UniProt Q7SB62); assay: co-IP; anti-FLAG affinity purification from N. crassa extracts, Coomassie gel and anti-FLAG Western blot; N-terminally tagged eIF3k or eIF3l in the ΔeIF3kl double knock-out background
T2 sequence: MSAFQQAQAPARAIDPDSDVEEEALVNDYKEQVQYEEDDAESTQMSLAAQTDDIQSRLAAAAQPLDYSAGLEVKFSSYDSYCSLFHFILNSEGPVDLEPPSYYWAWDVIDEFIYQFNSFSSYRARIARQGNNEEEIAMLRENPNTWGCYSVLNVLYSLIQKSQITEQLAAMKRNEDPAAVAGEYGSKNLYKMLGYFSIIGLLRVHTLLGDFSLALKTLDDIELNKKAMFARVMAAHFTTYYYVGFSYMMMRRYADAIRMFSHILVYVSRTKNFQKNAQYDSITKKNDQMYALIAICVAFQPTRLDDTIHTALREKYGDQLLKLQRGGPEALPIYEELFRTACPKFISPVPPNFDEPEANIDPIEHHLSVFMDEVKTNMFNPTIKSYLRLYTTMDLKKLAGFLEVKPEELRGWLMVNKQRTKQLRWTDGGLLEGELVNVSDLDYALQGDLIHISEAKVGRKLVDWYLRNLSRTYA

[3] = molecular target: T3, N-terminally tagged Neurospora crassa eIF3k (Neurospora crassa) (UniProt Q7S2R9); assay: as above
T3 sequence: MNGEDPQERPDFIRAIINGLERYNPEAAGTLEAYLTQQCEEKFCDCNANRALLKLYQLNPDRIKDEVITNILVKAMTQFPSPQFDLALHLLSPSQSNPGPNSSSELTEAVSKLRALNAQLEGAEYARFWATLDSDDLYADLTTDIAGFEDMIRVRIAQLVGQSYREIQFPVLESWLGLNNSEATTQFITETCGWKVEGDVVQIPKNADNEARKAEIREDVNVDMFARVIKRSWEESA

With Neurospora crassa eIF3d the binding [1] was “binds”.

phenylalanyl tRNA synthetase beta chain was tested, and the binding [2] was “no binding” and the binding [3] was “no binding”.

tRNA ligase was tested, and the binding [2] was “no binding” and the binding [3] was “no binding”.

No constants are given. Whether binding was seen depends on the method and setting. Binding seen in cells or lysates may run through a third protein. For some assays here: A result given as binding can be weak or reduced; the word gives no strength. Sequences can lack the tags named with a protein.
